Source: PubChem BioAssay AID1273 (Columbia University Molecular Screening Center, 2008)
Several values for one entry are separate records, joined by “and”; a condition that tells them apart may be missing. Identical values can stand only once. The list shows a part of the results. These are further read-outs of the screen, such as a control signal, another cell line or another target. No call is given for them. Most of these compounds were active or inconclusive in the main read-out, so they are no random draw.

assay: inhibitors of insulin promoter-driven GFP, primary screen, imaging, TRM-6 cells (human fetal islet line), eGFP reporter, cell count (AID 1273); conditions: measured here: cell count, toxicity, at 2 µM, reporter expression induced with tamoxifen

Row | SMILES | normalized cell count
1 | COc1cc2[nH]c(=O)n(CCCCCC(=O)NCCc3c[nH]c4ccccc34)c(=O)c2cc1OC | 67.2%
2 | Cc1cc(C)nc(NS(=O)(=O)c2ccc(N/C=C\C(=O)c3ccc(Cl)cc3)cc2)n1 | 95.9%
3 | CCOC(=O)CSc1nc2cc(OC)ccc2cc1C#N | 198%
4 | CCCCCCn1c(CN2CCN(CCO)CC2)nc2c1c(=O)n(C)c(=O)n2C | 78.2%
5 | CN(C)c1nc(NC(C)(C)C)nc(SCC(=O)Nc2ccccc2)n1 | 85.2%
6 | O=[N+]([O-])c1cc(Cl)cc(C2=NCCN2)c1 | 83.5%
7 | CCOc1ccc2nc(NC(=O)CN3CCC(n4nnc5cc(C(F)(F)F)ccc54)CC3)sc2c1 | 54.2%
8 | CCn1nnc2sc3c(c2c1=O)CCC(C)C3 (stereo not drawn) | 97.9%
9 | O=C(OCc1ccc([N+](=O)[O-])cc1)C1CC(=O)N(c2ccccc2)C1 (stereo not drawn) | 104%
10 | CCC(=O)Nc1cccc(C(=O)/C=C/c2cc(Br)ccc2OC)c1 | 104%
11 | Cc1ccccc1S(=O)(=O)c1cc(C#N)c(=O)[nH]c1N | 105%
12 | CN(C)C(=O)CN(c1ccc2c(c1)OCO2)S(C)(=O)=O | 73.5%
13 | CCCC(=O)Nc1nnc(COC)s1 | 65.3%
14 | Cn1c(C(=O)N2CCN(C(=O)c3ccco3)CC2)cc2c(=O)n3ccccc3nc21 | 118%
15 | COCn1c(-c2ccc(OC)cc2)nc2ccccc21 | 124%
16 | Clc1ccccc1-c1nc(-c2cccnc2)no1 | 78.9%
17 | CCN(CC)CCCN1CC(O)=C(c2nc3ccccc3s2)C1=N | 38.3%
18 | Cc1ccc(NC(=S)Nc2cc(-c3ccccc3)[nH]n2)cc1Cl | 109%
19 | CCN1C(=O)/C(=C/c2nc3ccccc3c(=O)[nH]2)c2ccccc21 | 148%
20 | c1ccc(Nc2nc3ccccc3o2)cc1 | 82.6%
21 | c1cncc(-c2nc(-c3cccs3)cs2)c1 | 132%
22 | COc1ccc(CN(C)CC(=O)Nc2cc(OC)c([N+](=O)[O-])cc2C)c(OC)c1 | 62%
23 | Cc1cc(C)n(-c2nc3c(c(=O)n(Cc4ccc(Cl)c(Cl)c4)c(=O)n3C)n2C)n1 | 71.3%
24 | CCOc1nc(NC2CCCCC2)nc(NC(C)(C)C)n1 | 101%

Row | SMILES | normalized cell count
25 | Cc1c(C(=O)NCc2cccnc2)oc2c1C(=O)CC(C)(C)C2 | 51%
26 | COc1ccc(N2CCN(C(CNC(=O)c3cccc(Cl)c3)c3cccnc3)CC2)cc1 (stereo not drawn) | 54.8%
27 | S=C(c1nc2ccccc2[nH]1)N1CCOCC1 | 120%
28 | CC(=O)NC1=NC(=O)CS1 | 137%
29 | O=C(c1ccccc1)c1ccccc1C(=O)N1CCOCC1 | 126%
30 | CCOc1c(C)cc(-c2ncccc2O)cc1C | 162% and 160%
31 | Cc1nc2cc(C(F)(F)F)ccc2n1C | 153%
32 | CCCn1c(CCc2ccccc2)nnc1SCC(=O)N1CCOCC1 | 108%
33 | COC(=O)/C(C#N)=C1/C=Cc2ccccc2N1C | 194%
34 | O=C1C2C3C=CC(C3)C2C(=O)N1c1ccc(N2CCN(c3ccccn3)CC2)c([N+](=O)[O-])c1 (stereo not drawn) | 105%
35 | CCC(C(=O)Nc1cc(C)on1)c1ccccc1 (stereo not drawn) | 49.5%
36 | O=C(Oc1ccc(NC2=C(Cl)C(=O)c3ccccc3C2=O)cc1)c1ccc([N+](=O)[O-])cc1 | 112%
37 | O=C(Nc1ccc(Nc2ccccc2)cc1)C1CC1 | 120%
38 | CC(=O)Nc1ccc(NC(=O)Cc2ccc(S(=O)(=O)N3CCCCC3)s2)cc1 | 150%
39 | COc1ccccc1/C=C/C(=C1/C(=O)N(c2ccccc2)N=C1C)c1ccc(C)cc1 | 188%
40 | O=C(NC(=S)Nc1ccc(N2CCOCC2)cc1)c1cncc(Br)c1 | 92.5%
41 | O=C(Cn1cnc2ccccc2c1=O)Nc1ccc(-c2nnc3n2CCCCC3)cc1 | 41.2%
42 | Cc1ccc(-n2nc3c(N4CCN(c5ccccc5)CC4)nnc(C)c3c2C)cc1 | 94.8%
43 | CC(=O)N(CC(C)(C)CC=C(C)C)c1ccccc1 | 125%
44 | COc1ccc(N2CCN(c3ccc(N4C(=O)CC(C)C4=O)cc3[N+](=O)[O-])CC2)cc1 (stereo not drawn) | 102%
45 | CC(C)Oc1ccc(NC(=O)c2ccncc2)cc1 | 119%
46 | Cc1nnc(-c2cnn(C)c2N)n1Cc1cccc(Cl)c1 | 53.9%
47 | CCCCC(=O)Nc1ccccc1C(=O)N1CCOCC1 | 72%
48 | CSCCC(NS(=O)(=O)c1ccc(Br)cc1)C(=O)OCC(=O)NC1CC1 (stereo not drawn) | 30.6%

Row | SMILES | normalized cell count
49 | O=C(NS(=O)(=O)c1ccccc1)c1ccccc1 | 95.8%
50 | CC(C)c1nc2cc3ccccc3cc2[nH]1 | 137%
51 | COc1ccc(-n2c(SCCC(=O)O)nnc2-c2ccncc2)cc1 | 121%
52 | COc1ccc(S(=O)(=O)Nc2ccc3c(c2)OCO3)cc1C | 94%
53 | COc1ccc(C(=O)Cn2c(NCCO)nc3ccccc32)cc1OC | 128%
54 | CCOc1cc(S(=O)(=O)n2nc(C)cc2C)ccc1F | 81.4%
55 | Clc1ccccc1N/N=C/c1ccc2c(c1)OCO2 | 89.2%
56 | CC(=O)Nc1ccc(NS(=O)(=O)c2ccc(Cl)c(C(=O)O)c2)cc1 | 21.6%
57 | Cc1ccc(S(=O)(=O)NCCC(c2ccccc2)c2ccccc2)cc1C(=O)O | 90.3%
58 | CN(C)C(C)(C)C#CCCCCC#CC(C)(C)N(C)C | 71.4%
59 | Cc1ccc(-n2c(=O)c3ccccc3n(CC(=O)NCc3ccco3)c2=O)cc1 | 91.5%
60 | CN(C)CCC(=O)c1ccc2c(c1)OCO2 | 89.4%
61 | Cc1cc(C)nc(N(C#N)S(=O)(=O)c2ccccc2)n1 | 57.7%
62 | CCCC(=O)Nc1sc2c(c1C(=O)OCC)CC(C)(C)OC2 | 124%
63 | CCOC(=O)c1c(N2C(=O)Nc3ccccc3N2O)n[nH]c1-c1cccc(Cl)c1 | 126%
64 | COc1cc(-c2nnc(SCC(=O)N3c4ccccc4Sc4ccccc43)o2)cc(OC)c1OC | 30.6%
65 | N#C/C(=C/c1cccs1)c1nc2ccccc2[nH]1 | 218%
66 | CC(C)c1nc(-c2ccccc2)c(-c2ccccc2)[nH]1 | 141%
67 | CC1CCCC(N2CCN(C(=O)c3cccc(F)c3)CC2)C1 (stereo not drawn) | 158%
68 | Cc1cc2cc(CNS(=O)(=O)N(C)C)ccc2[nH]1 | 93.1%
69 | Cc1ccc(S(=O)(=O)N2CCSC2C(=O)O)cc1 (stereo not drawn) | 99.2%
70 | CSc1nc2cc(F)c(F)cc2n1C | 179%
71 | CCOC(=O)c1cnc2c(C)cccc2c1NCc1ccco1 | 129%
72 | CN(C)c1nc(NS(=O)(=O)c2ccc(Cl)cc2)nc(N(C)C)n1 | 65.6%

Row | SMILES | normalized cell count
73 | Nc1nc(SCC(=O)Nc2ccc(Br)cc2F)n[nH]1 | 125%
74 | CC1(C)COC(c2coc3ccccc3c2=O)OC1 | 0%
75 | CCn1c(C)nc2cc(OC)ccc21 | 141%
76 | Cc1ccc2nc(NNC(=O)c3ccc(S(=O)(=O)N4CCc5ccccc5C4)cc3)sc2c1 | 53.4%
77 | CCOC(=O)CSc1nc2cc(C)ccc2cc1C#N | 60.4%
78 | O=C(CCCN1C(=O)CCC1=O)Nc1cccc(C(F)(F)F)c1 | 135%
79 | Cc1ccc(C(=O)NC(=S)Nc2nc(-c3cccc([N+](=O)[O-])c3)cs2)c(Cl)c1 | 57%
80 | CCOC(=O)CSc1nc(C)c2ccccc2n1 | 54.2%
81 | COc1ccc(-c2nc(SC)n(S(=O)(=O)c3ccccc3)n2)cc1 | 136%
82 | c1ccc(Cc2nnc3sc(-c4cccs4)nn23)cc1 | 177%
83 | COc1ccccc1N1CCN(S(=O)(=O)Cc2ccccc2Cl)CC1 | 115%
84 | COc1ccc2nc(C)c3cc(C)oc3c2c1 | 48%
85 | COc1ccc(-c2n[nH]c3c2C(c2ccc(OC)c(OC)c2)N(c2ccccc2)C3=O)cc1 (stereo not drawn) | 68%
86 | Cc1noc(C)c1COc1ccc(C(=O)OC(C)C(=O)Nc2ccc(N3CCOCC3)cc2)cc1 (stereo not drawn) | 90%
87 | C(=C1/CCCC2=C1Nc1ncnn1C2c1ccccc1)/c1ccccc1 (stereo not drawn) | 52.1%
88 | C=CCSc1ncc(C(=O)OCC)c(N)n1 | 181%
89 | CN(Cc1nc2ccccc2n1C)S(=O)(=O)c1ccc(F)cc1 | 154%
90 | O=C1OC2CC3CC1CC(O)(C3)C2 (stereo not drawn) | 101%
91 | CCC(=O)N/C(N)=N/c1nc(C)c2cc(OC)ccc2n1 | 139%
92 | CC1CN(S(=O)(=O)c2ccc(C(=O)Nc3sc4c(c3C(N)=O)CCN(C)C4)cc2)CC(C)O1 (stereo not drawn) | 127%
93 | O=c1c2[nH]c3ccc(Br)cc3c2ncn1CCCn1ccnc1 | 133%
94 | Clc1ccc2nc(N3CCCCC3)[nH]c2c1 | 139%
95 | CSc1nnc(NC(=O)C2CCCCC2)s1 | 221%
96 | CC(=O)c1cccc(NC(=O)c2nccnc2C(=O)O)c1 | 135%

Row | SMILES | normalized cell count
97 | CCN1C(=O)N[C@@H](c2ccc(Br)cc2)C(C(=O)OC)=C1C | 60.9%
98 | C/C(=N\NC(=O)c1c(C)nc2ccccn12)c1ccco1 | 55.1%
99 | CCC1CCCCN1C(=O)CSc1nnc(-c2ccco2)o1 (stereo not drawn) | 42.8%
100 | CN(Cc1ccccc1)C(=O)c1cnc2n(c1=O)CCS2 | 102%
101 | Cc1ccc(-c2nnn(CC(=O)N(CC(=O)NC(C)C)c3cnc4ccccc4c3)n2)o1 | 64.2%
102 | COc1cccc(C(=O)NC2=NCCS2)c1 | 103%
103 | Cc1ccc(C2=NC(=O)/C(=C/c3cc(O)c(O)c(Br)c3)S2)cc1 | 115%
104 | COc1cc(NC(=S)NCCN2CCOCC2)cc(OC)c1 | 118%
105 | O=C(CSc1nc2ccccc2[nH]1)Nc1c(F)cccc1F | 66.7%
106 | S=C(Nc1ccc2cn[nH]c2c1)Nc1ccccc1Cl | 171%
107 | CCCCn1c(C)nc2c(=O)n(C)c(=O)[nH]c21 | 101%
108 | N#Cc1ccc(C(=O)Nc2cccc3ncccc23)c(F)c1 | 128%
109 | CCNc1c2c(nc3ccccc13)CC(C)(C)CC2=O | 185%
110 | COc1ccc(Cn2nnnc2C(c2cccs2)N2CCOCC2)cc1 (stereo not drawn) | 0%
111 | O=C(c1cc2cc(Br)ccc2oc1=O)N1CCN(c2ccccn2)CC1 | 126%
112 | CC(Cc1cccs1)NC(=O)c1cccc(Cl)c1 (stereo not drawn) | 202%
113 | CCCC(=O)n1nc(-c2ccc(Cl)cc2)nc1SC | 113%
114 | Cc1noc(NS(=O)(=O)c2ccc(NC(=O)Nc3ccc(Cl)c(Cl)c3)cc2)c1C | 73.3%
115 | Oc1c(/C=N/Nc2cccc3cccnc23)ccc2ccccc12 | 154%
116 | Nc1ccc2nc(SCC(=O)N3CCOCC3)sc2c1 | 53.1%
117 | C/C(=N\Nc1nc2ccccc2[nH]1)c1ccc(N2CCOCC2)cc1 | 68.8%
118 | O=C(CN1C(=O)c2ccccc2C1=O)Nc1sc2c(c1C(=O)NCc1ccco1)CCCC2 | 29.5%
